The experiment deals with KSHV fusion protein gB (postfusion conformation, on the virion envelope) (Kaposi's sarcoma-associated herpesvirus (KSHV), BAC16) (UniProt F5HB81). Nature of the experiment: cryo-EM structure.

Sequences of proteins named here, by UniProt entry; tags and fusion partners are left off. Residues count along the entry.
UniProt F5HB81, residues 27-845: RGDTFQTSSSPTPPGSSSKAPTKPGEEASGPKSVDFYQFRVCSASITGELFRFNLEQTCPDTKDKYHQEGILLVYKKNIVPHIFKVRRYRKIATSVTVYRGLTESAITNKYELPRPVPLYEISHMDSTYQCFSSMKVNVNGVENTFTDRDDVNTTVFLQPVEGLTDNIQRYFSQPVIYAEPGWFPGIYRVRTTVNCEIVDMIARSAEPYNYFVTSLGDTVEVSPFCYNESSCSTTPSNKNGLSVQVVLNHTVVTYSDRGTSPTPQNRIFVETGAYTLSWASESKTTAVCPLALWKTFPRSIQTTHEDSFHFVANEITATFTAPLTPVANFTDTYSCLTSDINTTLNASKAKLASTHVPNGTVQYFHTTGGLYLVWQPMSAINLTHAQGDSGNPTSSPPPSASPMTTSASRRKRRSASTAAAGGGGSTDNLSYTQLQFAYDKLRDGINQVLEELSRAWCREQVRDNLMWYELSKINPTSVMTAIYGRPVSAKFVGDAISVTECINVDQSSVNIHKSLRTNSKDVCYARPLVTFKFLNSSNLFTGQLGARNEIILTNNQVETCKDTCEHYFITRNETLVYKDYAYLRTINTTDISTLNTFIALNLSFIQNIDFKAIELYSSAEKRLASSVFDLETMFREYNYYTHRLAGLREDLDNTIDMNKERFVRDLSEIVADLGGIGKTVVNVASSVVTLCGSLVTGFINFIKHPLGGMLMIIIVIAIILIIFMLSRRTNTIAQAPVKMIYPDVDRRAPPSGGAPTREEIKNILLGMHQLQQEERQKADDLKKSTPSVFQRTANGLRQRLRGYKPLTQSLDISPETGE

This note sets out measurements from publication doi:10.1101/2024.07.09.602672.

These are yes or no findings as the source states them, for the method shown. Some results given as binding are weak or reduced against the parent protein; the word gives no strength.

For “KSHV fusion protein gB (postfusion conformation, on the virion envelope) (from UniProt F5HB81 27-845)”, the binding result is reported as “binds”.
